Results are given in words; binding and its absence hold for the method and conditions named. Some entries that bind do so weakly or less than the wild type. Sequences can lack the tags named with a protein.
How the values were obtained:
[1] = molecular target: toll-like receptor 2 (TLR2) (UniProt O60603); test: flow cytometry on HEK cells over-expressing TLR2 (FIG. 14C legend)
[2] = molecular target: toll-like receptor 4 (TLR4) (UniProt O00206); test: flow cytometry on HEK cells over-expressing TLR4 (FIG. 14C legend)
[3] = molecular target: toll-like receptor 2 (TLR2) (UniProt O60603); test: flow cytometry, V5-tagged D1 (100 nM) on HEK293 cells stably expressing TLR2, FITC-V5 detection
[4] = molecular target: toll-like receptor 4 (TLR4) (UniProt O00206); test: flow cytometry, V5-tagged D1 (100 nM) on HEK293 cells stably expressing TLR4, FITC-V5 detection

Amino acid sequences for entries named in this document (tags omitted). Residues count along the entry.
UniProt O60603: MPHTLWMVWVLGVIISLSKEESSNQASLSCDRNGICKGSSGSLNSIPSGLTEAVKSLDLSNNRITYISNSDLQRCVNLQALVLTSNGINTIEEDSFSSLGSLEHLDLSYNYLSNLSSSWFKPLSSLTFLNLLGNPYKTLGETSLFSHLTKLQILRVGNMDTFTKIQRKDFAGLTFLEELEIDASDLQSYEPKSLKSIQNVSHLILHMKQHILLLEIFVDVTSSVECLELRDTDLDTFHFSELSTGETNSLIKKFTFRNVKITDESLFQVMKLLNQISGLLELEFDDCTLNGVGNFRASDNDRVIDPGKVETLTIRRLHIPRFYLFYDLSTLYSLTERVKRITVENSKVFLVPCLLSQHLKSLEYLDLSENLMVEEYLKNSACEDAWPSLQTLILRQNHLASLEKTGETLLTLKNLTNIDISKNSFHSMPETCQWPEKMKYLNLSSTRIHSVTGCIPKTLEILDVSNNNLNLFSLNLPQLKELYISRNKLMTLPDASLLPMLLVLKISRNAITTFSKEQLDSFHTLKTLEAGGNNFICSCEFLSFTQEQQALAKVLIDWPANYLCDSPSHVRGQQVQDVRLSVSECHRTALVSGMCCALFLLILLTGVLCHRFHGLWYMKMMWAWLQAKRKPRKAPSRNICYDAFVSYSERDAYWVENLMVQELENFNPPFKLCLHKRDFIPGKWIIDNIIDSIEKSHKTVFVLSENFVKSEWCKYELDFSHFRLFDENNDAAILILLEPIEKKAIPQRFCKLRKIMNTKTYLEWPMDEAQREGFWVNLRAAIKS
UniProt O00206, residues 24-839: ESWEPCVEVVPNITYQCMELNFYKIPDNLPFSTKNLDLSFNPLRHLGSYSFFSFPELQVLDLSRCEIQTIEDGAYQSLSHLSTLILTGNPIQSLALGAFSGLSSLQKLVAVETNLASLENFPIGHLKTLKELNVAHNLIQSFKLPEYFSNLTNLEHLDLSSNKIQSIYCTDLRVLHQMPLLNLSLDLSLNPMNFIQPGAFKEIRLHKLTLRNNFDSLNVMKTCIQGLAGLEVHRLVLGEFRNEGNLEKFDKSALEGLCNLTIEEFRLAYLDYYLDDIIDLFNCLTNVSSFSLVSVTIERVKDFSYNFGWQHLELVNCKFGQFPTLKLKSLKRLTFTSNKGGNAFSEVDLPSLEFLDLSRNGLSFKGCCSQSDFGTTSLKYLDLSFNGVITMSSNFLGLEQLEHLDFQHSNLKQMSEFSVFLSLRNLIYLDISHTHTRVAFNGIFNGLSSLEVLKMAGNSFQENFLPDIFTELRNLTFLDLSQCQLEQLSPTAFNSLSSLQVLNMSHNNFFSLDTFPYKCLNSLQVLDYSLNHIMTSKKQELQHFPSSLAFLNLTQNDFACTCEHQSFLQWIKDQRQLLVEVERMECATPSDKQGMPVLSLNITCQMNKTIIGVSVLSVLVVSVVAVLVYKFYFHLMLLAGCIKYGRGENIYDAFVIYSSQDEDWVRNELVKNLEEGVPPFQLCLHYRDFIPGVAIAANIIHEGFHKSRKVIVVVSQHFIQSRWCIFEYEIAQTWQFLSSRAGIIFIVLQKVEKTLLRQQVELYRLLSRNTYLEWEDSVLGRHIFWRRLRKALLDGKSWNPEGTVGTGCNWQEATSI

Measured: binding

B1: V5-tagged D1 (protein, not shown: small tags and cut ends)
chain: MPSASASRKSQEKPREIMDAAEDYAKERYGISSMIQSQEKPDRVLVRVRDLTIQKADEVVWVRARVHTSRAKGKQCFLVLRQQQFNVQALVAVGDHASKQMVKFAANINKESIVDVEGVVRKVNQKIGSCTQQDVELHVQKIYVISLAEPRLPL
binds: all assays above

From patent publication US20100310576A1
